Data on five molecules can be found in publication doi:10.1101/181776.

The chains behind the UniProt entries cited, without tags or fusion partners. Where a name states a change or a piece, a line headed by the entry shows the natural chain unless it says otherwise.
UniProt A5YKK6, whole entry: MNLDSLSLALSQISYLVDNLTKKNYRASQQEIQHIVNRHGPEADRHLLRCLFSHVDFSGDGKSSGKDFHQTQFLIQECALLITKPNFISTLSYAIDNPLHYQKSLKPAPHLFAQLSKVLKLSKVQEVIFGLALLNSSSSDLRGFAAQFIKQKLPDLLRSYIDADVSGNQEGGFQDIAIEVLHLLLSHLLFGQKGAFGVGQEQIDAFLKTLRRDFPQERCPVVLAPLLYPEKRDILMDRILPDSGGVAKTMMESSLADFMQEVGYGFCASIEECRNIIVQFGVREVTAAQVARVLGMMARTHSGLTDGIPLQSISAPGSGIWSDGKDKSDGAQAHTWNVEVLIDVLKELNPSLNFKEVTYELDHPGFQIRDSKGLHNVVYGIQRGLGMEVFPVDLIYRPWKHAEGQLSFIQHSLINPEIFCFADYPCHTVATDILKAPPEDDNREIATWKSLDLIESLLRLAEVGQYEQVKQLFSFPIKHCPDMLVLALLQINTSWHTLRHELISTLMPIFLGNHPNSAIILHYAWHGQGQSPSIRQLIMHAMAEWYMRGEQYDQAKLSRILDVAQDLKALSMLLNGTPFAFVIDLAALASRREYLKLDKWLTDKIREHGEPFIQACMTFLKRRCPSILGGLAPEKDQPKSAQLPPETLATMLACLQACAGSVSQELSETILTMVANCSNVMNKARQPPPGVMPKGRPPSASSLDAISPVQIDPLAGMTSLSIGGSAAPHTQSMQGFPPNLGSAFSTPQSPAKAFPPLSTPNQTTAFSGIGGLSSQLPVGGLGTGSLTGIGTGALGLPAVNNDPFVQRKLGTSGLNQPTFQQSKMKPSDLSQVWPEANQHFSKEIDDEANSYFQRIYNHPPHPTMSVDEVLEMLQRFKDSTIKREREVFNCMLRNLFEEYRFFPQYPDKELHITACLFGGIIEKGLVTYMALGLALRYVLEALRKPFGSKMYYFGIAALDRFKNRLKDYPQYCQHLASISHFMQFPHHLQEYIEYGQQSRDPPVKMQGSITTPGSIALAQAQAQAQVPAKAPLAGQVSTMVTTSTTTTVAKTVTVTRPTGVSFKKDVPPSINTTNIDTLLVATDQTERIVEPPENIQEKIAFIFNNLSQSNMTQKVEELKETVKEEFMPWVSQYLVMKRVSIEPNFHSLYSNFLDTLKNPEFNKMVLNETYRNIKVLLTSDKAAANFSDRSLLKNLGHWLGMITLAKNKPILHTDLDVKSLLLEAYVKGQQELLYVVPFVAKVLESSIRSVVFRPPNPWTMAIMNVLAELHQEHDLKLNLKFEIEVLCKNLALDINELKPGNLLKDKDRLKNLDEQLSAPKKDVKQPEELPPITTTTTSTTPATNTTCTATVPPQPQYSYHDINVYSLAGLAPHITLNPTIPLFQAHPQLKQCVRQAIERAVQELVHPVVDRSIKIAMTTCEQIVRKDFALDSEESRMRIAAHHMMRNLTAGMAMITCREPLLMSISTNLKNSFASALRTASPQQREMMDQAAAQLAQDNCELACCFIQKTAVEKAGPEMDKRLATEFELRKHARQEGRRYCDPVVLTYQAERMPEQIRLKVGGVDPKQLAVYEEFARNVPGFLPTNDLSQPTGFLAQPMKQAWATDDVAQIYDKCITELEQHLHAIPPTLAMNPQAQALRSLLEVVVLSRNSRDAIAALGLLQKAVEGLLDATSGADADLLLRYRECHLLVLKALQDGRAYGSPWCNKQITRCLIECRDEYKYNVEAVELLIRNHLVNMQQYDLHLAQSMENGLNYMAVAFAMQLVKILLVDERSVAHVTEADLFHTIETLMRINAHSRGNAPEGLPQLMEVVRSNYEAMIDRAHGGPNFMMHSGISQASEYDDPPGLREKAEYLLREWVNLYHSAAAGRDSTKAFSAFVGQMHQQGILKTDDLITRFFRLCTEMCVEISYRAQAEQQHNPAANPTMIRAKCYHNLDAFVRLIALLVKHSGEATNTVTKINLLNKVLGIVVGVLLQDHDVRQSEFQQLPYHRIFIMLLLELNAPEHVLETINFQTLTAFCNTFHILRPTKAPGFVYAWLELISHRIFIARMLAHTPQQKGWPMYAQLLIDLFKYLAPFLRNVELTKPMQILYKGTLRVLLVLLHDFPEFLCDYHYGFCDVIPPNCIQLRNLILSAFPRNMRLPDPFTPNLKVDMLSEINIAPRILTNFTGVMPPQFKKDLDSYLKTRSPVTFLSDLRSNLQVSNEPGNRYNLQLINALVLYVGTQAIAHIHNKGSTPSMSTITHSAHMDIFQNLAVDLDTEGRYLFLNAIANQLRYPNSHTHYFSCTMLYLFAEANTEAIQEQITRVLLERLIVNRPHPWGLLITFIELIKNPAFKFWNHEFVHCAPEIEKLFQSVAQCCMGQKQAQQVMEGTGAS
UniProt Q9NZN8, whole entry: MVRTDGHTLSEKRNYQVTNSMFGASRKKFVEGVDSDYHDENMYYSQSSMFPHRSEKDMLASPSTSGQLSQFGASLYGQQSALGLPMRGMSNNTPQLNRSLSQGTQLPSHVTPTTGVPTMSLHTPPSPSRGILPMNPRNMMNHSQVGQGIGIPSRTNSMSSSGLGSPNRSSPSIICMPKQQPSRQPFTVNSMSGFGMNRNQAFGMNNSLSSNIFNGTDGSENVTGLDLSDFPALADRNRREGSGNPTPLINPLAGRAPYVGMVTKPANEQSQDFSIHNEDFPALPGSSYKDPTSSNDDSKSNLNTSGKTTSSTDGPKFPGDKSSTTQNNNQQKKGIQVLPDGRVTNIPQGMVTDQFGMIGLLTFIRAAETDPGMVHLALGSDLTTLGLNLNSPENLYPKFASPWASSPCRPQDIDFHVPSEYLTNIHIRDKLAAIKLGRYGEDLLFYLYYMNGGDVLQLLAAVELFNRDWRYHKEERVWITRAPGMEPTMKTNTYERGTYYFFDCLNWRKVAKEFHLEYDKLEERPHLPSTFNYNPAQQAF
UniProt O75175, whole entry: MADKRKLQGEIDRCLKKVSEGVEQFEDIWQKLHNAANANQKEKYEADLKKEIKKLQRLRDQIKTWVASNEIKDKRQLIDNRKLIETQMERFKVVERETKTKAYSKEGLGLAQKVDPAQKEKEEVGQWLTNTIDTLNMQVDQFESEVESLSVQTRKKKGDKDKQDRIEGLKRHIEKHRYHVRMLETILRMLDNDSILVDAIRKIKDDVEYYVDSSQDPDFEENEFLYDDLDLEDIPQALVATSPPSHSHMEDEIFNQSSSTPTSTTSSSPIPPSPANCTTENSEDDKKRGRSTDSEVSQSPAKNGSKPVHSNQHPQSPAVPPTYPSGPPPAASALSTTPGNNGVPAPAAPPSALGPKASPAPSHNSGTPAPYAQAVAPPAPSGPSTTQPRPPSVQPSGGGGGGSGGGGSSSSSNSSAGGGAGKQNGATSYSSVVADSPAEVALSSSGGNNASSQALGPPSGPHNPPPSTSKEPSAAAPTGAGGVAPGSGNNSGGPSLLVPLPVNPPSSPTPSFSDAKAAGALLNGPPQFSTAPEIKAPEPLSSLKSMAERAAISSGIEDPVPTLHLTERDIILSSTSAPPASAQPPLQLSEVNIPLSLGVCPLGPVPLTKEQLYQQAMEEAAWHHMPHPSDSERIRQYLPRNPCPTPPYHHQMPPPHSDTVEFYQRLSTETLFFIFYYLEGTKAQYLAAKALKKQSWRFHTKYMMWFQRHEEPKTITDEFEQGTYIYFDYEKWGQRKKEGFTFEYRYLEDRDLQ
UniProt Q92600, whole entry: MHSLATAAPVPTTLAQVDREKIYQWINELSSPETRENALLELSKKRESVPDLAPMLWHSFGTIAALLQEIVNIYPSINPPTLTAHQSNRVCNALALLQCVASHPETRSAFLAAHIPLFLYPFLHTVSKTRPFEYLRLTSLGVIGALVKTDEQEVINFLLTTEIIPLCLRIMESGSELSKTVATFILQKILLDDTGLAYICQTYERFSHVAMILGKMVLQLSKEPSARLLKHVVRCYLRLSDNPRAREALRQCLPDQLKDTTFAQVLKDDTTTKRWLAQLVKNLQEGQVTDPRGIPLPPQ
UniProt Q9UIV1, whole entry: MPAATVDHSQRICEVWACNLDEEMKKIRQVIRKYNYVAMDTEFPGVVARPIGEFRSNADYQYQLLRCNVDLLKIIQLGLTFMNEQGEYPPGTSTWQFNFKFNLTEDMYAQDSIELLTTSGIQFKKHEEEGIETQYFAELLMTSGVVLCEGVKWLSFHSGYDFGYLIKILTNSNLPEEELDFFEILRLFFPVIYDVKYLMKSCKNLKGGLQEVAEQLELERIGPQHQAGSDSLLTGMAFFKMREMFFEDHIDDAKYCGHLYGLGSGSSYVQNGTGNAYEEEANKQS
UniProt O60573, whole entry: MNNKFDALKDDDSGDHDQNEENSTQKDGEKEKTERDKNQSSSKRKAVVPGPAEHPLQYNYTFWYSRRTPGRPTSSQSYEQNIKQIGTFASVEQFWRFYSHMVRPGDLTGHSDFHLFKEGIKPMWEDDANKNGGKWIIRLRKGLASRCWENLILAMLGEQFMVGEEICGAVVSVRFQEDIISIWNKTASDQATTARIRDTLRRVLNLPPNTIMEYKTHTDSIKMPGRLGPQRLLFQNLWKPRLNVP
UniProt Q9ULM6, whole entry: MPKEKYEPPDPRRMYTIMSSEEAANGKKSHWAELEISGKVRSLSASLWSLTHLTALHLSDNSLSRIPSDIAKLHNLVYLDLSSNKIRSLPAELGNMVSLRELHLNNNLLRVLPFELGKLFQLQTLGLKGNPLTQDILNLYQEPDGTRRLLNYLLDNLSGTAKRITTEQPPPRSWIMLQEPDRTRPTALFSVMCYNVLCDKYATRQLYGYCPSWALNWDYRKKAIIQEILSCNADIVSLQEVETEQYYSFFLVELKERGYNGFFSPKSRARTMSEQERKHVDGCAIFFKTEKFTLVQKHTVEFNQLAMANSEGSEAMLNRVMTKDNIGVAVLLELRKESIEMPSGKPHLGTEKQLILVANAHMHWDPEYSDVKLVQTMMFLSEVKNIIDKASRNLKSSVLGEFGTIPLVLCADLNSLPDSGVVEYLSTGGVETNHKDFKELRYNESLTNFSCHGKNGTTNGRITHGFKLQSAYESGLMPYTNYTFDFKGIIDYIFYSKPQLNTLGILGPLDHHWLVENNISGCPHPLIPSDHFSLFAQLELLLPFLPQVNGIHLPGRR

Some targets named below: GFP-tagged CNOT1 (UniProt A5YKK6); GFP-tagged CNOT2 (UniProt Q9NZN8); GFP-tagged CNOT3 (UniProt O75175).
Holding throughout (test): co-IP
The target of assay [1] is GFP-tagged CNOT9 (also known as RQCD1) (UniProt Q92600).
Assay [2] has as its target GFP-tagged CNOT7 (deadenylase, alternatively known as Caf1) (UniProt Q9UIV1).
For assay [3], the target named is HA-tagged m4EHP (mammalian cap-binding protein 4EHP) (human (cDNA from HeLa 11ht RNA)) (UniProt O60573).
For assay [4], the target named is FLAG-tagged m4EHP (human (cDNA from HeLa 11ht RNA)) (UniProt O60573).
The target of assay [5] is GFP-tagged CNOT6 (deadenylase, alternatively known as Ccr4a) (UniProt Q9ULM6).

Results are given in words; binding and its absence hold for the method and conditions named. Binding seen in cells or lysates may run through a third protein. Some binding calls cover weakened binding; strength is not graded here. For some assays here: Tags and fused reporters may be left off the sequences shown.

B1: HA-tagged GIGYF2 fragment Δ606 (lacks the N-terminal and GYF domains, comprises the MED) (domain or fragment, UniProt Q6Y7W6 607-1299)
chain: QERLTRQQELTALYQMQHLQYQQFLIQQQYAQVLAQQQKAALSSQQQQQLALLLQQFQTLKMRISDQNIIPSVTRSVSVPDTGSIWELQPTASQPTVWEGGSVWDLPLDTTTPGPALEQLQQLEKAKAAKLEQERREAEMRAKREEEERKRQEELRRQQEEILRRQQEEERKRREEEELARRKQEEALRRQREQEIALRRQREEEERQQQEEALRRLEERRREEEERRKQEELLRKQEEEAAKWAREEEEAQRRLEENRLRMEEEAARLRHEEEERKRKELEVQRQKELMRQRQQQQEALRRLQQQQQQQQLAQMKLPSSSTWGQQSNTTACQSQATLSLAEIQKLEEERERQLREEQRRQQRELMKALQQQQQQQQQKLSGWGNVSKPSGTTKSLLEIQQEEARQMQKQQQQQQQHQQPNRARNNTHSNLHTSIGNSVWGSINTGPPNQWASDLVSSIWSNADTKNSNMGFWDDAVKEVGPRNSTNKNKNNASLSKSVGVSNRQNKKVEEEEKLLKLFQGVNKAQDGFTQWCEQMLHALNTANNLDVPTFVSFLKEVESPYEVHDYIRAYLGDTSEAKEFAKQFLERRAKQKANQQRQQQQLPQQQQQQPPQQPPQQPQQQDSVWGMNHSTLHSVFQTNQSNNQQSNFEAVQSGKKKKKQKMVRADPSLLGFSVNASSERLNMGEIETLDDY
Take B1: in assay [1], the binding entry is on record as “binds”.

B2: HA-tagged GIGYF2 fragment 1-596 (N-terminal domain extended by the GYF domain) (domain or fragment, UniProt Q6Y7W6 1-596)
chain: MAAETQTLNFGPEWLRALSSGGSITSPPLSPALPKYKLADYRYGREEMLALFLKDNKIPSDLLDKEFLPILQEEPLPPLALVPFTEEEQRNFSMSVNSAAVLRLTGRGGGGTVVGAPRGRSSSRGRGRGRGECGFYQRSFDEVEGVFGRGGGREMHRSQSWEERGDRRFEKPGRKDVGRPNFEEGGPTSVGRKHEFIRSESENWRIFREEQNGEDEDGGWRLAGSRRDGERWRPHSPDGPRSAGWREHMERRRRFEFDFRDRDDERGYRRVRSGSGSIDDDRDSLPEWCLEDAEEEMGTFDSSGAFLSLKKVQKEPIPEEQEMDFRPVDEGEECSDSEGSHNEEAKEPDKTNKKEGEKTDRVGVEASEETPQTSSSSARPGTPSDHQSQEASQFERKDEPKTEQTEKAEEETRMENSLPAKVPSRGDEMVADVQQPLSQIPSDTASPLLILPPPVPNPSPTLRPVETPVVGAPGMGSVSTEPDDEEGLKHLEQQAEKMVAYLQDSALDDERLASKLQEHRAKGVSIPLMHEAMQKWYYKDPQGEIQGPFNNQEMAEWFQAGYFTMSLLVKRACDESFQPLGDIMKMWGRVPFSPGP
As to B2, the binding result (with GFP-tagged CNOT1; in assay [1]; in assay [2]) was “binds” in each case.

B3: endogenous GIGYF2 (protein, UniProt Q6Y7W6 1-1299)
chain: MAAETQTLNFGPEWLRALSSGGSITSPPLSPALPKYKLADYRYGREEMLALFLKDNKIPSDLLDKEFLPILQEEPLPPLALVPFTEEEQRNFSMSVNSAAVLRLTGRGGGGTVVGAPRGRSSSRGRGRGRGECGFYQRSFDEVEGVFGRGGGREMHRSQSWEERGDRRFEKPGRKDVGRPNFEEGGPTSVGRKHEFIRSESENWRIFREEQNGEDEDGGWRLAGSRRDGERWRPHSPDGPRSAGWREHMERRRRFEFDFRDRDDERGYRRVRSGSGSIDDDRDSLPEWCLEDAEEEMGTFDSSGAFLSLKKVQKEPIPEEQEMDFRPVDEGEECSDSEGSHNEEAKEPDKTNKKEGEKTDRVGVEASEETPQTSSSSARPGTPSDHQSQEASQFERKDEPKTEQTEKAEEETRMENSLPAKVPSRGDEMVADVQQPLSQIPSDTASPLLILPPPVPNPSPTLRPVETPVVGAPGMGSVSTEPDDEEGLKHLEQQAEKMVAYLQDSALDDERLASKLQEHRAKGVSIPLMHEAMQKWYYKDPQGEIQGPFNNQEMAEWFQAGYFTMSLLVKRACDESFQPLGDIMKMWGRVPFSPGPAPPPHMGELDQERLTRQQELTALYQMQHLQYQQFLIQQQYAQVLAQQQKAALSSQQQQQLALLLQQFQTLKMRISDQNIIPSVTRSVSVPDTGSIWELQPTASQPTVWEGGSVWDLPLDTTTPGPALEQLQQLEKAKAAKLEQERREAEMRAKREEEERKRQEELRRQQEEILRRQQEEERKRREEEELARRKQEEALRRQREQEIALRRQREEEERQQQEEALRRLEERRREEEERRKQEELLRKQEEEAAKWAREEEEAQRRLEENRLRMEEEAARLRHEEEERKRKELEVQRQKELMRQRQQQQEALRRLQQQQQQQQLAQMKLPSSSTWGQQSNTTACQSQATLSLAEIQKLEEERERQLREEQRRQQRELMKALQQQQQQQQQKLSGWGNVSKPSGTTKSLLEIQQEEARQMQKQQQQQQQHQQPNRARNNTHSNLHTSIGNSVWGSINTGPPNQWASDLVSSIWSNADTKNSNMGFWDDAVKEVGPRNSTNKNKNNASLSKSVGVSNRQNKKVEEEEKLLKLFQGVNKAQDGFTQWCEQMLHALNTANNLDVPTFVSFLKEVESPYEVHDYIRAYLGDTSEAKEFAKQFLERRAKQKANQQRQQQQLPQQQQQQPPQQPPQQPQQQDSVWGMNHSTLHSVFQTNQSNNQQSNFEAVQSGKKKKKQKMVRADPSLLGFSVNASSERLNMGEIETLDDY
Turning to B3, the binding result in assay [3] is on record as “binds”.

B4: HA-tagged GIGYF2 (GRB10-interacting GYF protein 2) (protein, UniProt Q6Y7W6 1-1299)
chain: MAAETQTLNFGPEWLRALSSGGSITSPPLSPALPKYKLADYRYGREEMLALFLKDNKIPSDLLDKEFLPILQEEPLPPLALVPFTEEEQRNFSMSVNSAAVLRLTGRGGGGTVVGAPRGRSSSRGRGRGRGECGFYQRSFDEVEGVFGRGGGREMHRSQSWEERGDRRFEKPGRKDVGRPNFEEGGPTSVGRKHEFIRSESENWRIFREEQNGEDEDGGWRLAGSRRDGERWRPHSPDGPRSAGWREHMERRRRFEFDFRDRDDERGYRRVRSGSGSIDDDRDSLPEWCLEDAEEEMGTFDSSGAFLSLKKVQKEPIPEEQEMDFRPVDEGEECSDSEGSHNEEAKEPDKTNKKEGEKTDRVGVEASEETPQTSSSSARPGTPSDHQSQEASQFERKDEPKTEQTEKAEEETRMENSLPAKVPSRGDEMVADVQQPLSQIPSDTASPLLILPPPVPNPSPTLRPVETPVVGAPGMGSVSTEPDDEEGLKHLEQQAEKMVAYLQDSALDDERLASKLQEHRAKGVSIPLMHEAMQKWYYKDPQGEIQGPFNNQEMAEWFQAGYFTMSLLVKRACDESFQPLGDIMKMWGRVPFSPGPAPPPHMGELDQERLTRQQELTALYQMQHLQYQQFLIQQQYAQVLAQQQKAALSSQQQQQLALLLQQFQTLKMRISDQNIIPSVTRSVSVPDTGSIWELQPTASQPTVWEGGSVWDLPLDTTTPGPALEQLQQLEKAKAAKLEQERREAEMRAKREEEERKRQEELRRQQEEILRRQQEEERKRREEEELARRKQEEALRRQREQEIALRRQREEEERQQQEEALRRLEERRREEEERRKQEELLRKQEEEAAKWAREEEEAQRRLEENRLRMEEEAARLRHEEEERKRKELEVQRQKELMRQRQQQQEALRRLQQQQQQQQLAQMKLPSSSTWGQQSNTTACQSQATLSLAEIQKLEEERERQLREEQRRQQRELMKALQQQQQQQQQKLSGWGNVSKPSGTTKSLLEIQQEEARQMQKQQQQQQQHQQPNRARNNTHSNLHTSIGNSVWGSINTGPPNQWASDLVSSIWSNADTKNSNMGFWDDAVKEVGPRNSTNKNKNNASLSKSVGVSNRQNKKVEEEEKLLKLFQGVNKAQDGFTQWCEQMLHALNTANNLDVPTFVSFLKEVESPYEVHDYIRAYLGDTSEAKEFAKQFLERRAKQKANQQRQQQQLPQQQQQQPPQQPPQQPQQQDSVWGMNHSTLHSVFQTNQSNNQQSNFEAVQSGKKKKKQKMVRADPSLLGFSVNASSERLNMGEIETLDDY
Consider B4, for which the binding entry (with GFP-tagged CNOT2; with GFP-tagged CNOT3; with GFP-tagged CNOT1; in assay [4]; in assay [1]; in assay [5]) was “binds” in each case. Also, in assay [2], the binding result is listed as “binds”.

B5: HA-tagged GIGYF2 fragment 1-532 (N-terminal domain) (domain or fragment, UniProt Q6Y7W6 1-532)
chain: MAAETQTLNFGPEWLRALSSGGSITSPPLSPALPKYKLADYRYGREEMLALFLKDNKIPSDLLDKEFLPILQEEPLPPLALVPFTEEEQRNFSMSVNSAAVLRLTGRGGGGTVVGAPRGRSSSRGRGRGRGECGFYQRSFDEVEGVFGRGGGREMHRSQSWEERGDRRFEKPGRKDVGRPNFEEGGPTSVGRKHEFIRSESENWRIFREEQNGEDEDGGWRLAGSRRDGERWRPHSPDGPRSAGWREHMERRRRFEFDFRDRDDERGYRRVRSGSGSIDDDRDSLPEWCLEDAEEEMGTFDSSGAFLSLKKVQKEPIPEEQEMDFRPVDEGEECSDSEGSHNEEAKEPDKTNKKEGEKTDRVGVEASEETPQTSSSSARPGTPSDHQSQEASQFERKDEPKTEQTEKAEEETRMENSLPAKVPSRGDEMVADVQQPLSQIPSDTASPLLILPPPVPNPSPTLRPVETPVVGAPGMGSVSTEPDDEEGLKHLEQQAEKMVAYLQDSALDDERLASKLQEHRAKGVSIPLMHEA
For the molecule B5, the binding entry (with GFP-tagged CNOT1; in assay [2]) was “binds” throughout.
